Results on one molecule are retold here after patent publication US20050233391A1.

Sequences of proteins named here, by UniProt entry; tags and fusion partners are left off. A change or cut given only in a name is not applied to a line headed by its entry.
UniProt P26718: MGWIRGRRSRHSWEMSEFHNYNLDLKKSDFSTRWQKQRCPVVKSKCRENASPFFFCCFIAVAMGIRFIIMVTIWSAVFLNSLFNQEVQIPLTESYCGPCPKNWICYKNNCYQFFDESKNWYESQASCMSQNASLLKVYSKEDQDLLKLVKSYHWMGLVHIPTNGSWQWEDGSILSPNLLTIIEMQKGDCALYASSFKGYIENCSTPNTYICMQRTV

The target in this assay is NKG2D on T cells (human) (UniProt P26718). Nature of the assay: flow cytometry of T cells after addition of soluble MICA. A general note: In flow cytometry, cells or beads pass a laser one at a time.

No constants are given. Whether binding was seen depends on the method and setting. Some binding calls cover weakened binding; strength is not graded here.

B1: purified recombinant soluble MICA (ligand)
chain: EPHSLRYNLTVLSWDGSVQSGFLAEVHLDGQPFLRYDRQKCRAKPQGQWAEDVLGNKTWDRETRDLTGNGKDLRMTLAHIKDQKEGLHSLQEIRVCEIHEDNSTRSSQHFYYDGELFLSQNVETEEWTVPQSSRAQTLAMNVRNFLKEDAMKTKTHYHAMHADCLQELRRYLESSVVLRRRVPPMVNVTRSEASEGNITVTCRASSFYPRNITLTWRQDGVSLSHDTQQWGDVLPDGNGTYQTWVATRICQGEEQRFTCYMEHSGNHSTHPVPSGKVLVLQSHW
As to B1, the binding entry is recorded as “binds”.
